Taken from: PubChem BioAssay AID1259314 (Drosophila RNAi Screening Center, 2017)
This is a random part of about 3,100 reagents. In the full data, 289 (9.3%) got an active call. 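Active includes both higher and lower ATP than plate average; check the z-score sign for direction.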 Unmarked entries are inactive. Names joined by + are all predicted targets of the reagent. The record does not give: the amount of reagent.

- Assay: 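Transmembrane protein genes affecting ATP after manganese overload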 (primary screen)
- Cell system: Drosophila S2R+ cells
- Reagent: long dsRNA against Drosophila genes
- Time to read-out: 5 days (4 days knock-down, then 1 day metal exposure)
- Treatment: manganese chloride added to 15 mM for 24 hours
- Measured: 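Luciferase ATP signal used as a proxy for viable cell number, reported as one averaged z-score per dsRNA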
- Direction: mean ATP z-score: higher = more ATP than the plate average, more viable cells under manganese
- Hit rule: 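Called active when the mean ATP z-score is above 1.5 or below -1.5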
- Meaning of the calls: active = strong ATP change, up or down; inactive = no strong ATP change

no.	target gene	DRSC id	mean ATP z-score
1	CG14439	DRSC17931	-0.555
2	CG14439	DRSC39551	-0.521
3	Aplip1 (APPL-interacting protein 1)	DRSC21587	-0.0251
4	Aplip1 (APPL-interacting protein 1)	DRSC26312	0.169
5	CG31454	DRSC22801	0.661
6	CG31454	DRSC24377	-0.61
7	slif (slimfast)	DRSC27438	2.63 (active)
8	slif (slimfast)	DRSC39791	1.28
9	CCHa1-R (CCHamide-1 receptor)	DRSC06456	0.429
10	CCHa1-R (CCHamide-1 receptor)	DRSC06715	0.74
11	Gr63a (Gustatory receptor 63a)	DRSC08438	-1.18
12	Nup93-2 (Nucleoporin 93kD-2)	DRSC16221	0.327
13	CG32079	DRSC22636	-0.018
14	CG32079	DRSC39426	-0.0917
15	Chs2 (Chitin synthase 2)	DRSC11830	-1.31
16	Chs2 (Chitin synthase 2)	DRSC39425	-0.694
17	Nup133 (Nucleoporin 133kD)	DRSC16150	0.107
18	rho-6 (rhomboid-6)	DRSC02588	1.01
19	rho-6 (rhomboid-6)	DRSC29070	0.984
20	Gr68a (Gustatory receptor 68a)	DRSC10803	-1.2
21	Gr68a (Gustatory receptor 68a)	DRSC39819	-0.367
22	CG5892	DRSC15910	-0.628
23	CG5892	DRSC24710	0.364
24	CG32301	DRSC08613	-0.869
25	CG32301	DRSC39589	-1.14
26	GABA-B-R2 (metabotropic GABA-B receptor subtype 2)	DRSC28127	0.439
27	GABA-B-R2 (metabotropic GABA-B receptor subtype 2)	DRSC39461	-0.794
28	HisCl1 (Histamine-gated chloride channel subunit 1)	DRSC14945	-0.769
29	CG8034	DRSC29895	0.392
30	Gr22f (Gustatory receptor 22f)	DRSC00076	0.191
31	Gr22f (Gustatory receptor 22f)	DRSC26841	-0.45
32	Alg9 (ALG9, alpha-1,2-mannosyltransferase)	DRSC14407	-0.549
33	Alg9 (ALG9, alpha-1,2-mannosyltransferase)	DRSC39513	-0.312
34	CG33635	DRSC00006	0.336
35	Syngr (Synaptogyrin)	DRSC06003	0.791
36	Syngr (Synaptogyrin)	DRSC39806	-0.415
37	Gr22e (Gustatory receptor 22e)	DRSC20912	1.73 (active)
38	pll (pelle)	DRSC17026	0.515
39	pll (pelle)	DRSC28551	0.158
40	CG5421	DRSC02858	-0.303
41	CG5421	DRSC24636	1.58 (active)
42	yin	DRSC21889	-0.0804
43	yin	DRSC39804	-0.68
44	dnt (doughnut on 2)	DRSC25886	0.812
45	dnt (doughnut on 2)	DRSC36749	1.79 (active)
46	nSyb (neuronal Synaptobrevin)	DRSC08727	-0.373
47	nSyb (neuronal Synaptobrevin)	DRSC27077	0.729
48	l(2)03659 (lethal (2) 03659)	DRSC07269	-0.248
49	l(2)03659 (lethal (2) 03659)	DRSC07638	-0.724
50	Ir60a (Ionotropic receptor 60a)	DRSC04212	0.289
51	Ir60a (Ionotropic receptor 60a)	DRSC39476	0.619
52	Gr98c (Gustatory receptor 98c)	DRSC26546	0.303
53	Gr98c (Gustatory receptor 98c)	DRSC39650	-0.566
54	NLaz (Neural Lazarillo)	DRSC21521	-0.505
55	Nmdar2 (NMDA receptor 2)	DRSC18183	1.05
56	Nmdar2 (NMDA receptor 2)	DRSC18569	0.35
57	disp (dispatched)	DRSC12376	-0.433
58	disp (dispatched)	DRSC39842	-0.343
59	CG13579	DRSC04215	1.3
60	CG13579	DRSC25603	0.0309
61	ppk15 (pickpocket 15)	DRSC14733	-0.195
62	ppk15 (pickpocket 15)	DRSC27947	-2.4 (active)
63	RYa-R (RYamide receptor)	DRSC16757	0.127
64	CG1824	DRSC19796	-0.474
65	CG1824	DRSC39705	0.921
66	mtt (mangetout)	DRSC05107	-0.364
67	mtt (mangetout)	DRSC06753	0.102
68	mtt (mangetout)	DRSC07235	-0.437
69	CG10062	DRSC24932	1.51 (active)
70	CG33298	DRSC02210	-0.513
71	CG33298	DRSC02672	1.42
72	Tsp42Er (Tetraspanin 42Er)	DRSC06183	2 (active)
73	alka (alkaliphile)	DRSC06136	-0.137
74	ft (fat)	DRSC00819	-0.751
75	ft (fat)	DRSC37550	0.0722
76	CG1724	DRSC20548	-1.4
77	CG1724	DRSC25668	3.96 (active)
78	Tsp42Eq (Tetraspanin 42Eq)	DRSC06180	0.064
79	CLS (Cardiolipin synthase)	DRSC15642	0.705
80	CLS (Cardiolipin synthase)	DRSC28289	-0.236
81	Or46a + asRNA:CR43467	DRSC07490	-0.649
82	Or46a + asRNA:CR43467	DRSC21590	0.416
83	Or46a + asRNA:CR43467	DRSC29654	-0.627
84	Culd (CUB and LDLa domain)	DRSC10262	3.16 (active)
85	Culd (CUB and LDLa domain)	DRSC39624	-0.471
86	Picot	DRSC07508	1.07
87	Picot	DRSC24256	0.163
88	COX4 (Cytochrome c oxidase subunit 4)	DRSC02091	0.146
89	COX4 (Cytochrome c oxidase subunit 4)	DRSC23915	-3.29 (active)
90	TrpA1 (Transient receptor potential cation channel A1)	DRSC10544	-1.01
91	Slc25A46a	DRSC20125	-0.84
92	Slc25A46a	DRSC39802	-0.257
93	mthl3 + mthl4	DRSC25990	-0.711
94	Mics1 (Mitochondrial morphology and cristae structure 1)	DRSC12537	-1.21
95	Mics1 (Mitochondrial morphology and cristae structure 1)	DRSC39452	-1.42
96	Trpgamma (Transient receptor potential cation channel gamma)	DRSC03626	-0.296
97	Trpgamma (Transient receptor potential cation channel gamma)	DRSC39800	-0.871
98	HisT (Histamine transporter)	DRSC05051	0.111
99	HisT (Histamine transporter)	DRSC06405	1.73 (active)
100	Cad74A (Cadherin 74A)	DRSC10636	-1.23
101	Zip71B (Zinc/iron regulated transporter-related protein 71B)	DRSC09686	-0.859
102	Zip71B (Zinc/iron regulated transporter-related protein 71B)	DRSC29491	-0.332
103	ppk23 (pickpocket 23)	DRSC20110	0.212
104	ppk23 (pickpocket 23)	DRSC26441	0.265
105	stj (straightjacket)	DRSC06124	-0.219
106	CG6484	DRSC06991	-0.167
107	CG6484	DRSC28087	-0.463
108	Der-1 (Derlin-1)	DRSC00301	-0.369
109	Der-1 (Derlin-1)	DRSC39555	-0.895
110	Gr22b (Gustatory receptor 22b)	DRSC20911	0.291

Copied from the list.
CG6484 [DRSC28087], mean ATP z-score → -0.463
Nup93-2 (Nucleoporin 93kD-2) [DRSC16221], mean ATP z-score: 0.327
ppk15 (pickpocket 15) [DRSC27947], mean ATP z-score = -2.4 (active)
Value of CG33635 [DRSC00006] in “mean ATP z-score”: 0.336
Result of Picot [DRSC24256] under “mean ATP z-score”: 0.163
For “mean ATP z-score”, CG14439 [DRSC39551] has -0.521
